Assay results: publication PMC4110944, “Probing SH2-domains using Inhibitor Affinity Purification (IAP)” (Proteome Science, 2014)
Results are given in words; binding and its absence hold for the method and conditions named. Binding seen in cells or lysates may run through a third protein. A yes stands for co-enrichment or nearness to the bait. Other partners may have been found.

Protein sequences, listed by entry. Tags and fused reporters are not part of them.
UniProt O00459: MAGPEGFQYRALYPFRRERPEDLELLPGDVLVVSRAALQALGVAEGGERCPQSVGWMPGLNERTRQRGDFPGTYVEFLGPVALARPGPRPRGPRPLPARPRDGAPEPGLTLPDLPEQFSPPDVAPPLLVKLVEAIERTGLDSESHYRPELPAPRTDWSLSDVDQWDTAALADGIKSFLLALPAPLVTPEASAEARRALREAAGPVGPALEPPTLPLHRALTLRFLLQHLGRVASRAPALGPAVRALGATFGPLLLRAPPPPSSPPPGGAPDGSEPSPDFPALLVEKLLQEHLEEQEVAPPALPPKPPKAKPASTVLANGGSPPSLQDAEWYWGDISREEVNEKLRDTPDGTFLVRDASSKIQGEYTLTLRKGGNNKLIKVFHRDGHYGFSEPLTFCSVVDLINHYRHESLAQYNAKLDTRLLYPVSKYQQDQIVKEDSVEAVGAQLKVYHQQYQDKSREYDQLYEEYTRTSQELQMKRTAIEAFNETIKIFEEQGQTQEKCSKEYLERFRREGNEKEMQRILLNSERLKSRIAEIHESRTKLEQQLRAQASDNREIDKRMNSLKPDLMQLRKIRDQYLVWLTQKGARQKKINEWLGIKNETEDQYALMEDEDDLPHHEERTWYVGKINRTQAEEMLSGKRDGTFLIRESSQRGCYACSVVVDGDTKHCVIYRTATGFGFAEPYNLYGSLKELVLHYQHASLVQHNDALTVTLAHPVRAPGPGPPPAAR
UniProt P42338: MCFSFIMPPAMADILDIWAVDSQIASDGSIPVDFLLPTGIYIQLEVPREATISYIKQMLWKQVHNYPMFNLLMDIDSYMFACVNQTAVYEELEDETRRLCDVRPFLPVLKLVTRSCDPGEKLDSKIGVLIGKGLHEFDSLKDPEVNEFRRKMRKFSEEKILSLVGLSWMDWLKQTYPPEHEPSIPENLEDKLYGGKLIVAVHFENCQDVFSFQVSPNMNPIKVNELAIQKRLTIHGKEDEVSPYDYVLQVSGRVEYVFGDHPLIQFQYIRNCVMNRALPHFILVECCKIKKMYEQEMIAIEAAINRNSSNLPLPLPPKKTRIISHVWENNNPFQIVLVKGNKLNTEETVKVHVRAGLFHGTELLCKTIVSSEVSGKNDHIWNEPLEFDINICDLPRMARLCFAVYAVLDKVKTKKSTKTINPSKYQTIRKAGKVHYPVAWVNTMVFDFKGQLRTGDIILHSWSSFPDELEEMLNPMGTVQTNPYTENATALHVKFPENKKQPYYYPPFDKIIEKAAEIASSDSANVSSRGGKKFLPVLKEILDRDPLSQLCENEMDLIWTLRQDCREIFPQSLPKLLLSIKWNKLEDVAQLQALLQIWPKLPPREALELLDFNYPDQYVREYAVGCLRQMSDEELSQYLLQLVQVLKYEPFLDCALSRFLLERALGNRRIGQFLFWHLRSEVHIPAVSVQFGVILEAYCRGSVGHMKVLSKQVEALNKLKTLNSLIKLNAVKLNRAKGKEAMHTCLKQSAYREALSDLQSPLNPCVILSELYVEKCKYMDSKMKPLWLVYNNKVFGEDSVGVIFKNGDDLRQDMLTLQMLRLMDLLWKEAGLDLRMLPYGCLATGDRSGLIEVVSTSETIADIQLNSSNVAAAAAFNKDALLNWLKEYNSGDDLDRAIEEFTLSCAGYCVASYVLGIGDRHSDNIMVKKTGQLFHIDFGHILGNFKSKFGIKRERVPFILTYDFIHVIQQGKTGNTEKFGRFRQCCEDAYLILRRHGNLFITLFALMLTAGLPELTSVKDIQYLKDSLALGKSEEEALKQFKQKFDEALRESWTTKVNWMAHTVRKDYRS

Target: Phosphoinositide 3-kinase regulatory subunit 2 (p85β) (human (endogenous in Colo205)) (UniProt O00459)
Test: affinity purification with mass spectrometry; probe 1 immobilised on NHS-sepharose beads; lysate of Colo205 cells treated with water (control) or 100 uM pervanadate; lysate with beads 30 min at 4°C; washes with CP buffer with 0.4% and 0.2% NP40 and 10% glycerol; LC-MS/MS, label-free quantification, triplicates

binding: binds
Substance: Phosphoinositide 3-kinase catalytic subunit B (p110β) (from UniProt P42338 1-1070) (enzyme)
